The other results are listed elsewhere or left out.
Experiments:
Experiment in all cases: log2 fold change, soluble protein after heating vs DMSO (PISA); higher = thermal stabilisation; K562 cells, 10 uM, 30 min; active = over 0.2 and 3.5 SD of the protein, either way, in both replicates (recomputed)
[1] = compound: CC1=C(C=C(C=C1)NC(=O)C2=CC(=CC=C2)C(C)(C)C#N)NC3=CC4=C(C=C3)N=CN(C4=O)C
How it was run: (§1)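 K562 cells at 2×10^6 cells/mL were exposed to 10 μM compound for 30 min, then aliquots were heated for 3 min across 48°C-58°C, pooled, and extracted in PBS containing 0.5% NP-40 at 4°C. The supernatant after 21,000xg for 90 min was taken as soluble protein and measured by TMTpro 16plex LC-MS/MS with channel sums equalised. Thermal stability is reported relative to control samples, with values from duplicates. Fold changes are given on a log2 scale.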

Amino acid sequences for entries named in this document (tags omitted). A change or cut given only in a name is not applied to a line headed by its entry.
UniProt Q96Q15: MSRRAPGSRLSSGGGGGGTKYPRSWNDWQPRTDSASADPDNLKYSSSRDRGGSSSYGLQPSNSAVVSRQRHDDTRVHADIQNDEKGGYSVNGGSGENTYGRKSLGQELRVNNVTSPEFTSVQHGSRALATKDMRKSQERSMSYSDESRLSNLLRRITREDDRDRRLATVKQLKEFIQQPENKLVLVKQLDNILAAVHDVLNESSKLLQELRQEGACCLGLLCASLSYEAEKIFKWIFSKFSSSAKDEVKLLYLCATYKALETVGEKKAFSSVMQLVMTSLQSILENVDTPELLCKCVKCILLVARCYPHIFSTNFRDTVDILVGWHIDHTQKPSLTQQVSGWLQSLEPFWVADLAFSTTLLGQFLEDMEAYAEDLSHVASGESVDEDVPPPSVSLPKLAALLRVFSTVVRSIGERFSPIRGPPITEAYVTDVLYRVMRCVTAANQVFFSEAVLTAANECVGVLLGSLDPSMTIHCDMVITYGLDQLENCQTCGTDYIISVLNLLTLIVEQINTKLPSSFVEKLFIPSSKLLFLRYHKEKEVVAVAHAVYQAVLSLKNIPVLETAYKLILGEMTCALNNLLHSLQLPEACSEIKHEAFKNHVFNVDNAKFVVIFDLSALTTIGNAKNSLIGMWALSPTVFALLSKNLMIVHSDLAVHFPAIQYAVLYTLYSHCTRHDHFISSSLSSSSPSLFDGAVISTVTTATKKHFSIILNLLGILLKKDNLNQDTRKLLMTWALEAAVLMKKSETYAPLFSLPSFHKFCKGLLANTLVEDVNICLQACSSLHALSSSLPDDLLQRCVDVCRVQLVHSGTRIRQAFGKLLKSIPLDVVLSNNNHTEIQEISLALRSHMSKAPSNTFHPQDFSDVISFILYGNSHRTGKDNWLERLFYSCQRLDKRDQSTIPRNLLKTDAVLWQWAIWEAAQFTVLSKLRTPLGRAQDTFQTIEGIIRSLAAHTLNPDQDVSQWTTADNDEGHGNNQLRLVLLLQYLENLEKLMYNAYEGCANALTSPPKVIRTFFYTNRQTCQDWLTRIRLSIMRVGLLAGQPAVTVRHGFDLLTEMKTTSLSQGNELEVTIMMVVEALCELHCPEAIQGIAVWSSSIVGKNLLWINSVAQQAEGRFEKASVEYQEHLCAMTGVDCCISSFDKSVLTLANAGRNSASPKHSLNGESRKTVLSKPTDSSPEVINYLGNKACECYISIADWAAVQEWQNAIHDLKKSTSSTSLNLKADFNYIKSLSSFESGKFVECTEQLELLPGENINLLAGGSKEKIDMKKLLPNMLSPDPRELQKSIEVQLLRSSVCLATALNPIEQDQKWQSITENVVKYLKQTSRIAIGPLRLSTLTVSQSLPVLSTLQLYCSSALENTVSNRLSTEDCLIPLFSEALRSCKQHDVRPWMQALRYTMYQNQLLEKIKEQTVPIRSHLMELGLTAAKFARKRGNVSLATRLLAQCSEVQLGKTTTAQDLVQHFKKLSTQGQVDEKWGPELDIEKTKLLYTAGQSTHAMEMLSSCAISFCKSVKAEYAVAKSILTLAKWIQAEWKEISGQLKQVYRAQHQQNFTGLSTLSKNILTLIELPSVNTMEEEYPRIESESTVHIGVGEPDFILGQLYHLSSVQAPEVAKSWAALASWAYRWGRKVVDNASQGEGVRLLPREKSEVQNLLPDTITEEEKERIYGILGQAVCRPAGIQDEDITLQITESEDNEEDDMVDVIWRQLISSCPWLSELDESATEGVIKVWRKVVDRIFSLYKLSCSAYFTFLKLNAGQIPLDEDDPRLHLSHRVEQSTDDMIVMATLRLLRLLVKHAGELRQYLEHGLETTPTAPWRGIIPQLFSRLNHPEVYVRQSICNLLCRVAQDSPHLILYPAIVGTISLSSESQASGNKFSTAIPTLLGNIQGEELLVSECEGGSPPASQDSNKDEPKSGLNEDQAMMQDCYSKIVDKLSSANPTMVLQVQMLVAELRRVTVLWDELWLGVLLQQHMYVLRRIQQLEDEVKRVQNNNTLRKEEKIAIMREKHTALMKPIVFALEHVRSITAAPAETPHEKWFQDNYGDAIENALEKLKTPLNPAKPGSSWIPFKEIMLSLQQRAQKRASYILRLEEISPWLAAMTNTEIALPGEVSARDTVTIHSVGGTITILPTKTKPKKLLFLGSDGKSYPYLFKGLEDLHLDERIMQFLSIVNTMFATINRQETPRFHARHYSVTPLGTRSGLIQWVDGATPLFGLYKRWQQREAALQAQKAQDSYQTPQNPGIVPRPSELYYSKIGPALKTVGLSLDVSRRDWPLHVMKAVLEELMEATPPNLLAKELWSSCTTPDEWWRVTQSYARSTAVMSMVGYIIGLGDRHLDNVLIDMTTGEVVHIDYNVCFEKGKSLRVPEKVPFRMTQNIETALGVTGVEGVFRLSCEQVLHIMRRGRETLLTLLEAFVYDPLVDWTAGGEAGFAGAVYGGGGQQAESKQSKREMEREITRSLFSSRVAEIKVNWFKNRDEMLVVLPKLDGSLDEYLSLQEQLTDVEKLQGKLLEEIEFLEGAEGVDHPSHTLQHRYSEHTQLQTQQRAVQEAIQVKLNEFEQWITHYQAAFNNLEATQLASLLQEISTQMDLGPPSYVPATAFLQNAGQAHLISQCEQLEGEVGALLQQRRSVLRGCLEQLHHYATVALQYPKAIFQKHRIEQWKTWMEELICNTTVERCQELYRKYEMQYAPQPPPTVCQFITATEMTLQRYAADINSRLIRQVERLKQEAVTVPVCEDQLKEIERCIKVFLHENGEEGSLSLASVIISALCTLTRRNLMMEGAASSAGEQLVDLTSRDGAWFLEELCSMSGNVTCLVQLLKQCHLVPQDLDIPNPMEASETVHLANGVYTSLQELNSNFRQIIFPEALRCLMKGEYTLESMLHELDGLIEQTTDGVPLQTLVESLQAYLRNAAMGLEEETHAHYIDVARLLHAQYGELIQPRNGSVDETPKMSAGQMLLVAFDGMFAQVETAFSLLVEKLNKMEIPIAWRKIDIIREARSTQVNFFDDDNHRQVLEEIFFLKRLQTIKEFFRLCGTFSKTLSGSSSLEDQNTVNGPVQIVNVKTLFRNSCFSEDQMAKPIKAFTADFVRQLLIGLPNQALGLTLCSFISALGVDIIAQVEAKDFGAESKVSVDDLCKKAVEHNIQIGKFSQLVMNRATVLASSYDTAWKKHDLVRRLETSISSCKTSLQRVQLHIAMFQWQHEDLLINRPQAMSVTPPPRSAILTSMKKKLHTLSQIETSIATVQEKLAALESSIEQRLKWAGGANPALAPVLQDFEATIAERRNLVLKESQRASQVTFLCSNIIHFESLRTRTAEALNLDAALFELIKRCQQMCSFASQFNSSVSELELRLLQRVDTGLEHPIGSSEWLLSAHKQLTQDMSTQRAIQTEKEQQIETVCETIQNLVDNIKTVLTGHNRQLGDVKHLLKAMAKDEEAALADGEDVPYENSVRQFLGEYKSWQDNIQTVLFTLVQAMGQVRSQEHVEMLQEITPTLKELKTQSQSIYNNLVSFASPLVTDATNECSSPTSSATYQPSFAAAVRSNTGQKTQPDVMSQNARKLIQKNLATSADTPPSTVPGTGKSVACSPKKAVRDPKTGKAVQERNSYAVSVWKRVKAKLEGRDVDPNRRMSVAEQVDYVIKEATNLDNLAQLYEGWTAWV
UniProt Q9H4L7: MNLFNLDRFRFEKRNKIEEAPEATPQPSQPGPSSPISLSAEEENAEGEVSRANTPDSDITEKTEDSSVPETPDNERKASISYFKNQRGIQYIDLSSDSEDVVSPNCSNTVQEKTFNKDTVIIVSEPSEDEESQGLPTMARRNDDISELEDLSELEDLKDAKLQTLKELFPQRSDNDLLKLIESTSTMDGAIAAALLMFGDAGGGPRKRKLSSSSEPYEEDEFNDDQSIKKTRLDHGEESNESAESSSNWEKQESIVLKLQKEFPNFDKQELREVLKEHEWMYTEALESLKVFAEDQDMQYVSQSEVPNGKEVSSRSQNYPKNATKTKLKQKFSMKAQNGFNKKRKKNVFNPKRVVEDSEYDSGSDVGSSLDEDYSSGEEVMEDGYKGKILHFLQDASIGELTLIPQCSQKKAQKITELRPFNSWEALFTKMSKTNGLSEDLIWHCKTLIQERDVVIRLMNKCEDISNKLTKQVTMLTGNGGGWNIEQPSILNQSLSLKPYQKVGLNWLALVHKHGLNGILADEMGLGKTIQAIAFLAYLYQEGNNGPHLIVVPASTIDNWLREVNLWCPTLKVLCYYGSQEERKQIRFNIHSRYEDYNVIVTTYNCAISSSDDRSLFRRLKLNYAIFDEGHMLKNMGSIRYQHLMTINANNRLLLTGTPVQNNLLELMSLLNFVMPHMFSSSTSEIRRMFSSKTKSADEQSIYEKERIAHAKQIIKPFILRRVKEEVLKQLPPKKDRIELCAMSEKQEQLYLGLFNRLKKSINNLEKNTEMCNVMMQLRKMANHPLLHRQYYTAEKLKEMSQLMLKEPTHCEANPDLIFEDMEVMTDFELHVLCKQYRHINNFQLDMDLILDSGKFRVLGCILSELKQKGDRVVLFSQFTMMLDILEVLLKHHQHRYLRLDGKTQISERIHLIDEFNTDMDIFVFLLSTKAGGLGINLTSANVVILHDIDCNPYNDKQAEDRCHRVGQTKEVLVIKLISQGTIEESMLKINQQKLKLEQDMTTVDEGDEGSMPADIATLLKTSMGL
UniProt Q13485: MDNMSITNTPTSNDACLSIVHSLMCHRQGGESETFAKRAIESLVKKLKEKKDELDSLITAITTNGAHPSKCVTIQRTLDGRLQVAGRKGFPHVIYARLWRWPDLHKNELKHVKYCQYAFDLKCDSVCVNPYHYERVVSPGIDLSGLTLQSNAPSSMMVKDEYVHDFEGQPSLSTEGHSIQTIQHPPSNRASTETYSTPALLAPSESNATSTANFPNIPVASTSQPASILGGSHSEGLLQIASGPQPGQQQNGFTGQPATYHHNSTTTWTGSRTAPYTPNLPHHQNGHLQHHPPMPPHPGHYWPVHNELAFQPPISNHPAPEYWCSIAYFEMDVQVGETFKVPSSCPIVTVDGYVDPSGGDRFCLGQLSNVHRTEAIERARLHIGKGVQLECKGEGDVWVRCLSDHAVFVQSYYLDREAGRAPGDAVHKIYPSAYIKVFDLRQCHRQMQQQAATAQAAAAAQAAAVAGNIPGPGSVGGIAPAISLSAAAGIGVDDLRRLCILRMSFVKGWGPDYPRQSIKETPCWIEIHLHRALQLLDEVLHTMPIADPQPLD
UniProt P08621, whole entry, looked up: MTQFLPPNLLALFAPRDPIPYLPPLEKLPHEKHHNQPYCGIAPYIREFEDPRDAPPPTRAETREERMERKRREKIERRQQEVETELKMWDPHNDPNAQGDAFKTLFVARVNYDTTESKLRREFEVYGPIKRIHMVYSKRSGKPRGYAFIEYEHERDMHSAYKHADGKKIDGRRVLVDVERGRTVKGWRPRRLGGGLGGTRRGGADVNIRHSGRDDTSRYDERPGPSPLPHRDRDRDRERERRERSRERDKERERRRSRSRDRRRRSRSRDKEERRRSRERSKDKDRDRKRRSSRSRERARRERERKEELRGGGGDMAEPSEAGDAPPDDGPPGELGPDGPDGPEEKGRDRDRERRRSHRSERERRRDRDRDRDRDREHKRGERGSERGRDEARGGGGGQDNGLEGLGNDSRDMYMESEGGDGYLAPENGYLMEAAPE
UniProt Q969G3, whole entry, looked up: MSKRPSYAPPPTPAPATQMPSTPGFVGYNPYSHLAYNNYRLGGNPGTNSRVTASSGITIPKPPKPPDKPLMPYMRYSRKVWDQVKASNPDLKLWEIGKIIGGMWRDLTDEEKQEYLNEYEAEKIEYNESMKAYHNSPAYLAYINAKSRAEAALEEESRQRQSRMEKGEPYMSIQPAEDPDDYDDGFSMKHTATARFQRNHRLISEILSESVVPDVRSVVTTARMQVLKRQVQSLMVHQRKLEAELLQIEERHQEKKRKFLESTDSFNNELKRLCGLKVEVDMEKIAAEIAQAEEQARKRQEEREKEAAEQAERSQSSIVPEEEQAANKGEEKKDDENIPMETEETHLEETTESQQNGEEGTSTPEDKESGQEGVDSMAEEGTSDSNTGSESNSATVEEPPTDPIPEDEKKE
UniProt P62314, whole entry, looked up: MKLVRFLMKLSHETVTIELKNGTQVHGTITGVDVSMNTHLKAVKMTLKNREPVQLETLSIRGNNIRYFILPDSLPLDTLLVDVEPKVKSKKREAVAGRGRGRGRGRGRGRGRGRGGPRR
UniProt P52788: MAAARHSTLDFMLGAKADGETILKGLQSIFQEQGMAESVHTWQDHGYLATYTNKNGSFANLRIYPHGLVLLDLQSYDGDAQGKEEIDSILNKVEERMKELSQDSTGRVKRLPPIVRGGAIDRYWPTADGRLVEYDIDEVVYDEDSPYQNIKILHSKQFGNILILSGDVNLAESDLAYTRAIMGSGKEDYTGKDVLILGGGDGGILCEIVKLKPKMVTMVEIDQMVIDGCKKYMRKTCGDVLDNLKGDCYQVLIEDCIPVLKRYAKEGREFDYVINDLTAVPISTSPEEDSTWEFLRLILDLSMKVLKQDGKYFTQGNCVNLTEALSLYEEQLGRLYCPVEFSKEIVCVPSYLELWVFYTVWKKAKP

[2] = compound: CC1=C(C=C(C=C1)NC(=O)C2=CC(=CC=C2)N(C)C)NC(=O)C3=CC=C(C=C3)O
How it was run: as §1

[3] = compound: CC1=CC=C(C=C1)SC2=C3C=C(SC3=CN=C2)C(=O)N
How it was run: as §1

[4] = compound: CC1=NC(=CC=C1)C2=C(N=C(N2)C(C)(C)C)C3=CC4=NC=CN=C4C=C3
How it was run: as §1

Nexturastat A = compound: CCCCN(Cc1ccc(C(=O)NO)cc1)C(=O)Nc1ccccc1 [Nexturastat A]
How it was run: as §1

vemurafenib = compound: CCCS(=O)(=O)Nc1ccc(F)c(C(=O)c2c[nH]c3ncc(-c4ccc(Cl)cc4)cc23)c1F [vemurafenib]
How it was run: as §1

[5] = compound: CCCS(=O)(=O)Nc1ccc(F)c(C(=O)c2c[nH]c3ncc(Cl)cc23)c1F
How it was run: as §1

[6] = compound: CCCc1cc(C)[nH]c(=O)c1CNC(=O)c1cc(-c2ccnc(N3CCN(C)CC3)c2)cc2c1cnn2C(C)C
How it was run: as §1

givinostat = compound: CCN(CC)Cc1ccc2cc(COC(=O)Nc3ccc(C(=O)NO)cc3)ccc2c1 [givinostat]
How it was run: as §1

barasertib = compound: CCN(CCCOc1ccc2c(Nc3cc(CC(=O)Nc4cccc(F)c4)[nH]n3)ncnc2c1)CCOP(=O)(O)O [barasertib]
How it was run: as §1

[7] = compound: CC[C@@H]1C(=O)N(C)c2cnc(Nc3ccc(C(=O)NC4CCN(C)CC4)cc3OC)nc2N1C1CCCC1
How it was run: as §1

volasertib = compound: CC[C@@H]1C(=O)N(C)c2cnc(Nc3ccc(C(=O)N[C@H]4CC[C@H](N5CCN(CC6CC6)CC5)CC4)cc3OC)nc2N1C(C)C [volasertib]
How it was run: as §1

[8] = compound: CC[C@H](C)N1C=C(C2=C(C=C(C=C21)C3=CN=C(C=C3)N4CCNCC4)C(=O)NCC5=C(C=C(NC5=O)C)C)C
How it was run: as §1

epoxomicin = compound: CC[C@H](C)[C@@H](C(=O)N[C@@H]([C@@H](C)O)C(=O)N[C@@H](CC(C)C)C(=O)[C@]1(CO1)C)NC(=O)[C@H]([C@@H](C)CC)N(C)C(=O)C [epoxomicin]
How it was run: as §1

[9] = compound: CCn1c(C(=O)N(C2CC2)C2CC2)cc2c3c(ncn3C)c(Nc3cc(C)n(C)n3)nc21
How it was run: as §1

[10] = compound: CCn1cc(-c2ccnc3[nH]c(-c4cccc(CN(C)C)c4)cc23)c(-c2ccc(NC(=O)N(C)C)cc2)n1
How it was run: as §1

[11] = compound: CN(C)CC(=O)Nc1ccc2[nH]c(=O)c3ccccc3c2c1
How it was run: as §1

rosiglitazone = compound: CN(CCOC1=CC=C(C=C1)C[C@H]2C(=O)NC(=O)S2)C3=CC=CC=N3 (racemic) [rosiglitazone]
How it was run: as §1

[12] = compound: CN1C2=C(C3=C1C(=O)N(N=C3)CC4=CC(=CC=C4)N)SC(=C2)S(=O)C
How it was run: as §1

[13] = compound: CN1CCC(CNc2ccc3ncc(-c4cccc(OC(F)(F)F)c4)n3n2)CC1
How it was run: as §1

Target | log2 fold change [1] | log2 fold change [2] | log2 fold change [3] | log2 fold change [4] | log2 fold change (Nexturastat A) | log2 fold change (vemurafenib) | log2 fold change [5] | log2 fold change [6] | log2 fold change (givinostat) | log2 fold change (barasertib) | log2 fold change [7] | log2 fold change (volasertib) | log2 fold change [8] | log2 fold change (epoxomicin) | log2 fold change [9] | log2 fold change [10] | log2 fold change [11] | log2 fold change (rosiglitazone) | log2 fold change [12] | log2 fold change [13]
SMNDC1 (UniProt O75940) | inactive: 0.01 | inactive: -0.024 | inactive: -0.011 | inactive: -0.012 | inactive: 0.029 | inactive: 0.01 | inactive: -0.052 | inactive: -0.102 | inactive: -0.033 | inactive: -0.01 | inactive: 0.111 | inactive: 0.073 | inactive: -0.046 | inactive: 0.012 | inactive: 0.001 | inactive: 0.049 | inactive: -0.014 | inactive: -0.025 | inactive: -0.018 | inactive: 0.077
SORBS1 isoform 12 (UniProt Q9BX66) | inactive: 0.014 | inactive: -0.003 | inactive: -0.019 | inactive: 0.033 | inactive: -0.049 | inactive: -0.003 | inactive: 0.011 | inactive: -0.088 | inactive: -0.072 | inactive: 0.033 | inactive: -0.032 | inactive: -0.103 | inactive: -0.035 | inactive: -0.009 | inactive: -0.006 | inactive: 0.013 | inactive: -0.023 | inactive: 0.039 | inactive: -0.046 | inactive: 0.069
SNX14 (UniProt Q9Y5W7) | inactive: -0.012 | inactive: -0.073 | inactive: -0.016 | inactive: -0.224 | inactive: 0.048 | inactive: 0.019 | inactive: 0.023 | inactive: 0.055 | inactive: -0.035 | inactive: 0.235 | inactive: -0.01 | inactive: 0.007 | inactive: 0.054 | inactive: 0.023 | inactive: 0.045 | – | inactive: -0.018 | inactive: -0.068 | inactive: 0.214 | –
SMAD9 (UniProt O15198) | inactive: -0.012 | inactive: 0.029 | inactive: 0.005 | inactive: 0.028 | inactive: 0.04 | inactive: 0.122 | inactive: 0.104 | inactive: -0.032 | inactive: 0.108 | inactive: 0.054 | inactive: 0.059 | active: -0.417 | inactive: -0.137 | inactive: 0.026 | – | inactive: 0.035 | inactive: 0.043 | – | inactive: -0.087 | inactive: -0.261
SMG1 (UniProt Q96Q15) | inactive: -0.068 | inactive: -0.048 | inactive: 0.031 | inactive: 0.012 | inactive: 0.045 | inactive: 0.029 | inactive: 0.077 | inactive: -0.096 | inactive: 0.05 | inactive: 0.075 | inactive: -0.137 | active: -0.391 | inactive: 0.158 | inactive: 0.024 | – | inactive: 0.05 | inactive: 0.046 | – | inactive: 0.129 | inactive: -0.02
SLCO4A1 (UniProt Q96BD0) | inactive: 0.012 | inactive: 0.088 | inactive: -0.021 | inactive: -0.323 | inactive: -0.003 | inactive: -0.363 | inactive: -0.016 | inactive: 0.05 | inactive: 0.005 | inactive: 0.009 | inactive: 0.098 | inactive: 0.064 | inactive: -0.213 | inactive: 0.044 | inactive: 0.114 | inactive: -0.191 | inactive: 0.004 | inactive: -0.293 | – | inactive: 0.059
SP3 (UniProt Q02447) | inactive: -0.008 | inactive: -0.126 | inactive: -0.041 | inactive: -0.058 | inactive: -0.003 | inactive: -0.038 | inactive: 0.012 | inactive: -0.052 | inactive: -0.219 | inactive: 0.011 | inactive: 0.03 | inactive: 0.104 | inactive: -0.019 | inactive: -0.194 | – | inactive: 0.068 | inactive: -0.074 | – | inactive: 0.058 | inactive: 0.028
SMARCAD1 isoform 2 (UniProt Q9H4L7) | inactive: 0.028 | inactive: -0.072 | inactive: -0.026 | inactive: 0.064 | inactive: -0.028 | inactive: 0.192 | inactive: 0.101 | inactive: 0.035 | inactive: 0.127 | inactive: 0.089 | inactive: -0.085 | active: -0.378 | inactive: 0.057 | inactive: 0.046 | – | inactive: -0.1 | inactive: 0.04 | – | inactive: -0.037 | inactive: -0.1
SMC3 (UniProt Q9UQE7) | inactive: -0.008 | inactive: 0.007 | inactive: -0.015 | inactive: 0.009 | inactive: -0.036 | inactive: 0.008 | inactive: -0.006 | inactive: -0.031 | inactive: 0.066 | inactive: 0.004 | inactive: -0.023 | inactive: -0.084 | inactive: 0.016 | inactive: 0.037 | inactive: -0.01 | inactive: 0.001 | inactive: -0.017 | inactive: 0.014 | inactive: -0.021 | inactive: -0.074
SMAD4 (UniProt Q13485) | inactive: -0.094 | inactive: -0.045 | inactive: 0.027 | inactive: 0.011 | inactive: 0.017 | inactive: -0.016 | inactive: 0.045 | inactive: -0.025 | inactive: 0.025 | inactive: 0.03 | inactive: -0.012 | inactive: -0.101 | inactive: 0.048 | inactive: -0.005 | inactive: 0.005 | inactive: -0.008 | inactive: 0.015 | inactive: 0.028 | inactive: -0.054 | inactive: 0.019
SNRNP70 (UniProt P08621) | inactive: -0.034 | inactive: 0.01 | inactive: -0.125 | inactive: -0.054 | inactive: 0.226 | inactive: -0.047 | inactive: -0.097 | inactive: 0.04 | inactive: 0.043 | inactive: -0.184 | inactive: 0.328 | inactive: 0.213 | inactive: 0.011 | inactive: -0.198 | inactive: -0.014 | inactive: 0.208 | inactive: -0.109 | inactive: -0.159 | inactive: 0.185 | inactive: 0.331
SLK isoform 2 (UniProt Q9H2G2) | inactive: -0.078 | inactive: -0.07 | inactive: 0.051 | inactive: 0.02 | inactive: -0.007 | inactive: 0.03 | inactive: 0.092 | inactive: 0.026 | inactive: 0 | inactive: 0.047 | inactive: -0.095 | inactive: -0.161 | inactive: 0.05 | inactive: 0.052 | – | active: -0.271 | inactive: -0.016 | – | inactive: -0.022 | inactive: -0.152
SMARCE1 (UniProt Q969G3) | inactive: -0.025 | inactive: -0.058 | inactive: -0.003 | inactive: 0.074 | inactive: 0.121 | inactive: -0.123 | inactive: 0.085 | inactive: -0.522 | inactive: 0.028 | inactive: 0.042 | inactive: -0.006 | inactive: -0.125 | inactive: 0.087 | inactive: -0.033 | – | inactive: 0.053 | inactive: -0.036 | – | inactive: 0.058 | inactive: -0.045
SNRPD1 (UniProt P62314) | inactive: -0.051 | inactive: 0.016 | inactive: -0.071 | inactive: -0.051 | inactive: 0.035 | inactive: -0.066 | inactive: -0.043 | inactive: -0.073 | inactive: 0.039 | inactive: -0.072 | inactive: 0.148 | inactive: 0.154 | inactive: -0.047 | inactive: -0.11 | inactive: -0.004 | inactive: 0.006 | inactive: -0.072 | inactive: -0.043 | inactive: 0.047 | inactive: 0.01
SMPD4 isoform 4 (UniProt Q9NXE4) | inactive: 0.022 | inactive: -0.011 | inactive: 0.075 | inactive: 0.112 | inactive: 0.075 | inactive: 0.02 | inactive: 0.058 | inactive: -0.034 | inactive: 0.066 | inactive: 0.13 | inactive: -0.067 | inactive: -0.076 | inactive: 0.068 | inactive: -0.008 | – | inactive: -0.081 | inactive: 0.036 | – | inactive: -0.075 | active: -0.32
SMS (UniProt P52788) | inactive: -0.022 | inactive: 0.011 | inactive: 0.048 | inactive: 0.03 | inactive: -0.105 | inactive: -0.033 | inactive: -0.006 | inactive: -0.048 | inactive: -0.042 | inactive: -0.003 | inactive: 0.008 | inactive: -0.049 | inactive: -0.048 | inactive: 0.001 | inactive: 0.009 | inactive: 0.006 | inactive: -0.02 | inactive: 0 | inactive: -0.092 | inactive: -0.031
SMC5 (UniProt Q8IY18) | inactive: -0.038 | inactive: -0.067 | inactive: -0.017 | inactive: -0.032 | inactive: -0.014 | inactive: 0.043 | inactive: -0.033 | inactive: -0.02 | inactive: -0.033 | inactive: -0.048 | inactive: 0.042 | inactive: 0.054 | inactive: -0.009 | inactive: 0.018 | – | inactive: -0.025 | inactive: 0.033 | – | inactive: 0.005 | inactive: 0.037

In a second layout: results already given.
Target	log2 fold change [1]	log2 fold change [2]	log2 fold change [3]	log2 fold change [4]	log2 fold change (Nexturastat A)	log2 fold change (vemurafenib)	log2 fold change [5]	log2 fold change [6]	log2 fold change (givinostat)	log2 fold change (barasertib)	log2 fold change [7]	log2 fold change (volasertib)	log2 fold change [8]	log2 fold change (epoxomicin)	log2 fold change [9]	log2 fold change [10]	log2 fold change [11]	log2 fold change (rosiglitazone)	log2 fold change [12]	log2 fold change [13]
SNRPD1 (UniProt P62314)	inactive: -0.051	inactive: 0.016	inactive: -0.071	inactive: -0.051	inactive: 0.035	inactive: -0.066	inactive: -0.043	inactive: -0.073	inactive: 0.039	inactive: -0.072	inactive: 0.148	inactive: 0.154	inactive: -0.047	inactive: -0.11	inactive: -0.004	inactive: 0.006	inactive: -0.072	inactive: -0.043	inactive: 0.047	inactive: 0.01
SMPD4 isoform 4 (UniProt Q9NXE4)	inactive: 0.022	inactive: -0.011	inactive: 0.075	inactive: 0.112	inactive: 0.075	inactive: 0.02	inactive: 0.058	inactive: -0.034	inactive: 0.066	inactive: 0.13	inactive: -0.067	inactive: -0.076	inactive: 0.068	inactive: -0.008	–	inactive: -0.081	inactive: 0.036	–	inactive: -0.075	active: -0.32
SMS (UniProt P52788)	inactive: -0.022	inactive: 0.011	inactive: 0.048	inactive: 0.03	inactive: -0.105	inactive: -0.033	inactive: -0.006	inactive: -0.048	inactive: -0.042	inactive: -0.003	inactive: 0.008	inactive: -0.049	inactive: -0.048	inactive: 0.001	inactive: 0.009	inactive: 0.006	inactive: -0.02	inactive: 0	inactive: -0.092	inactive: -0.031

— the supplement of paper PMC10849652
